Measurements as given in patent US9346854B2, “Anti-inflammatory peptides and use thereof” (Yeda Research and Development Co. Ltd., priority 2012, dated 2016).
“And” between values parts separate entries of the source, which are not always exact repeats. Identical values can stand only once. “Also recorded” adds a separate entry of the source. Not every detail of the peptide structures is certain; ends, links or a residue may be inferred. No end group written: not given here.

Key:
[1] = LPS binding assay with NBD-labeled peptides; conditions: NBD-labeled peptide affinity to LPS
Description: NBD-labeled peptides (50 μl, 2 μM, PBS^−/− 2% DMSO) were added to different concentrations of LPS (50 μl PBS^−/−) in a opaque black 96 well plate. After 10 minutes of incubation at room temperature, the fluorescence was measured using an excitation of 467 nm and emission of 530 nm. The data were plotted and Kd and Bmax values obtained using NLLSQ analysis.

Balb/c mice = assay: Antigen (OVA) induced anaphylactic shock; type: in vivo; conditions: i.v. 10-15 mg/kg, 30-45 minutes prior to soluble OVA challenge
Description: The inhibitory capacity of the Kn(AL)nKn peptides was tested in the most rigorous manner for inhibition of otherwise fatal anaphylaxis. In this model, Balb/c mice were immunized by an i.p. injection of 100 μg OVA in 5 mg Alum and 1.5 μg pertusis, a protocol that favors IgE-type of response. Three weeks later the immunized mice received an i.v. injection of soluble OVA (3.5-5 μg), resulting in a rapid and aggressive anaphylactic shock. In this specific model, the immunized mice die within 10-20 minutes after the systemic (i.v.) OVA injection.
To test the ability of the peptides of the invention to inhibit anaphylactic shock formation, an i.v. injection of the K2(AL)8K2 peptide at 10-15 mg/kg was administered, 30-45 minutes prior to the soluble OVA challenge. Strikingly, this single injection rescued 87% of the sensitized mice (Table 7). […] In several mice that were protected by the K2(AL)8K2 peptide, the protection lasted for at least 2 days. Peptide treated mice died of anaphylactic shock only after systemic injection of a very high dose of OVA. Still, the exact conditions for optimum protective activity need to be validated.

C57BL mice [2] = assay: Septic shock induced by purified LPS with D-galactosamine; type: in vivo; conditions: single i.p. injection 10 mg/kg immediately after LPS/D-galactosamine challenge
C57BL mice [3] = assay: Septic shock induced by heat killed E. coli; type: in vivo; conditions: 10 mg/kg after heat killed E. coli
TLR2 activation by LTA = assay: TNFα secretion by RAW264.7 macrophages stimulated with LTA; type: cell-based, murine; conditions: LTA 500 ng/ml; peptide 20 μM (FIG. 1A)
Description: (§1) All in vitro assays were performed on RAW264.7 murine macrophages (ATCC-TIB71). Cells were grown in DMEM supplemented with 10% FBS, L-glutamine, sodium pyruvate, non-essential amino acids and antibiotics (Biological Industries, Beit Haemek, Israel). Incubator was set on 37° C. with a humidified atmosphere containing 5% CO2.
(§2) 2×10^5 cells per well were cultured overnight in a 96-wells plate. The following day, the media were replaced by fresh DMEM, including all supplements. Peptides were dissolved in DMSO and added to the cells in different concentrations. Final concentration of DMSO was 1% for all groups. Cells were incubated with the peptide for 2 hours, then LPS (TLR4 activator) or LTA (TLR2 activator) was added to the cells at 10 ng/ml or 500 ng/ml, respectively. The cells were further incubated for 5 hrs at 37° C., after which samples of the media from each treatment were collected and stored at −20° C. TNFα concentration in each sample was evaluated using a mouse TNFα enzyme-linked immunosorbent assay kit (Biosource™ ELISA, Invitorgen), according to the manufacturer's protocol. All experiments were done in triplicates.

TLR4 activation by LPS = assay: TNFα secretion by RAW264.7 macrophages stimulated with LPS; type: cell-based, murine
Description: as §1, §2

KKALALALALALALALALKK-NH2 [K2(AL)8K2]
Kd [1]: 2600 nM
Survival of anaphylactic shock (%) (Balb/c mice): 87% and 87 (14/16) %
survival (C57BL mice [2]): 100%
recovery (C57BL mice [3]): 100%
inhibition of LTA activation of macrophages (TNFα secretion), in words (TLR2 activation by LTA): highly potent
inhibition of LPS activation of macrophages (TNFα secretion), in words (TLR4 activation by LPS; LPS 10 ng/ml, peptide 20 μM (FIGS. 1A, 2)): highly potent; also recorded: highly active
inhibition (LPS neutralization) (TLR4 activation by LPS; peptide 20 μM): 90%
inhibition of macrophage activation (TLR4 activation by LPS; peptide concentration 500 nM (FIG. 1B)): ~50%
